Experimental data taken from the supplement of paper PMC7646827.
Single values are uncertain, as repeats are few or missing.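 All cells are established human bladder cancer lines, one derived from a patient-derived xenograft. A luminescent ATP assay measured viability as percent inhibition relative to vehicle across seven dilutions. The paper rates scores above 59 very active, 30–59 active, 21–29 semi-active, 9–20 low active, below 9 inactive.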

Experiments:
Assay in all cases: drug sensitivity score DSS3 (score 0-100); higher = more sensitive; extreme values may be limits of the assay
Conditions in all cases: culture: 3D, ultra-low attachment; treatment time: 5 days
SCaBER = system: SCaBER
T-24 = system: T-24
UM-UC-9 = system: UM-UC-9
UM-UC-18 = system: UM-UC-18
UM-UC-15 = system: UM-UC-15
UM-UC-3 = system: UM-UC-3
UM-UC-17 = system: UM-UC-17
UM-UC-12 = system: UM-UC-12
BC8149 = system: BC8149
J82 = system: J82
UM-UC-6 = system: UM-UC-6
UM-UC-5 = system: UM-UC-5
5637 = system: 5637
TCCSUP = system: TCCSUP
UM-UC-14 = system: UM-UC-14
UM-UC-1 = system: UM-UC-1
SW780 = system: SW780
UM-UC-13 = system: UM-UC-13

Compound | drug sensitivity score DSS3 (SCaBER) | drug sensitivity score DSS3 (T-24) | drug sensitivity score DSS3 (UM-UC-9) | drug sensitivity score DSS3 (UM-UC-18) | drug sensitivity score DSS3 (UM-UC-15) | drug sensitivity score DSS3 (UM-UC-3) | drug sensitivity score DSS3 (UM-UC-17) | drug sensitivity score DSS3 (UM-UC-12) | drug sensitivity score DSS3 (BC8149) | drug sensitivity score DSS3 (J82) | drug sensitivity score DSS3 (UM-UC-6) | drug sensitivity score DSS3 (UM-UC-5) | drug sensitivity score DSS3 5637 | drug sensitivity score DSS3 (TCCSUP) | drug sensitivity score DSS3 (UM-UC-14) | drug sensitivity score DSS3 (UM-UC-1) | drug sensitivity score DSS3 (SW780) | drug sensitivity score DSS3 (UM-UC-13)
Cn1c(=O)c(F)c(Nc2ccc(I)cc2F)c2c(=O)n(C[C@@H](O)CO)cnc21 [TAK-733] (max dose 10000 nM) | 36.9 | 17.4 | 0.418 | 0 | 9.94 | 19.1 | 0.379 | 5.8 | 4.49 | 0.837 | 3.96 | 59.3 | 15.5 | 13.9 | 11 | 13.1 | 0.19 | 45
O=C(NOCC1CC1)c1ccc(F)c(F)c1Nc1ccc(I)cc1Cl (max dose 10000 nM) | 7.73 | 5.29 | 0 | 0 | 8.11 | 4.03 | 0 | 2.58 | 1.17 | 0.167 | 0 | 0 | 1.78 | 4.23 | 1.69 | 2.45 | 0 | 6.89
